PubChem BioAssay
This is one part of the list.

Assay: Wnt pathway potentiators raising nuclear beta-catenin – imaging, WNT3A-conditioned medium, mouse C2C12, NPC library, primary screen (AID 1117326); also: reference of the scale not given here
Settings: at 2 µM, stronger effect = higher value

`CCOC(=O)N1CCC(=O)CC1` showed a nuclear beta-catenin stimulation of -1.4%.

In the case of `CCC(=O)N(c1ccccc1)C1CCNCC1`, the nuclear beta-catenin stimulation is reported as 2.3%.
